The full ranking holds about 33,000 sequences; the median of “E-score (-0.5 to 0.5)” is about -0.016, and the highest 2% start at about 0.3. The list shows a part of the results.
biological target: T1, Yer184c (UniProt P39961); test: PBM E-score (8-mer binding enrichment) (E-score (-0.5 to 0.5)); higher = stronger / more preferred TF binding; conditions: protein concentration: 100 nM; construct: GST-full length
T1 sequence: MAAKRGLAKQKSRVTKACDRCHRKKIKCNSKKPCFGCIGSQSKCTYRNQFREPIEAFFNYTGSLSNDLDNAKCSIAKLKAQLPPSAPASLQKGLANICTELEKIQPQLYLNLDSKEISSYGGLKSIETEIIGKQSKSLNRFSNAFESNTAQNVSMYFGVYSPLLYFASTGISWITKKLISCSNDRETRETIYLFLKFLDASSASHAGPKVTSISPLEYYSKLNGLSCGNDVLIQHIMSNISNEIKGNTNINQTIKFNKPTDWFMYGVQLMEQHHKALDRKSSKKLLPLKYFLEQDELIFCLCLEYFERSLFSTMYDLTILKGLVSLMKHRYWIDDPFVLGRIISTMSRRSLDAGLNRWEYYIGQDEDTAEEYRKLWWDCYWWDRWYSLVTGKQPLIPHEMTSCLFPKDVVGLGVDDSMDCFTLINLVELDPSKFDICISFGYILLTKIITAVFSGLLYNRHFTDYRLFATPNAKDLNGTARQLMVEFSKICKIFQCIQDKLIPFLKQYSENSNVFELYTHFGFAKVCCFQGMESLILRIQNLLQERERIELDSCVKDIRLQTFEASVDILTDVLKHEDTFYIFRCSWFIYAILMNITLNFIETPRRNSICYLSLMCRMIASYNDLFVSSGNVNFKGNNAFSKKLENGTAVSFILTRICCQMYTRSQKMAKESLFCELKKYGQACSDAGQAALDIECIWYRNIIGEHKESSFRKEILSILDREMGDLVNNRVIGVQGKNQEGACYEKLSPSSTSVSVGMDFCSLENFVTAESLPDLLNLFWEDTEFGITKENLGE
Summary of the method: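 GST-tagged yeast TFs (full-length or DNA-binding domain) were made by PURExpress in vitro transcription/translation and applied at about 100-200 nM to universal all-10-mer Agilent arrays. The arrays were made double-stranded by primer extension, on fresh or once-stripped slides. Bound protein was detected with fluorescent anti-GST, and scans were normalised with masliner. Each ungapped eight-base word, pooled with its reverse complement, received an E-score (modified Wilcoxon-Mann-Whitney statistic) from the Universal PBM Analysis Suite.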

Row | Sequence | PBM E-score
1 | CGTCGGCA | 0.221
2 | CGGCGTGA | 0.16
3 | CCTACCAA | 0.0704
4 | AGGGTGCA | -0.234
5 | CTCGGTTC | 0.131
6 | AAGTATTC | 0.0574
7 | AGAGTGCT | -0.265
8 | CAGCTCAA | 0.0261
9 | ATTTGGCC | 0.0904
10 | AACGCCTT | -0.105
11 | ATCATAAT | 0.0657
12 | CGGCGTTA | 0.243
13 | GGATATAC | 0.148
14 | TACGTAGA | -0.057
15 | ACAGCTCA | -0.225
16 | CATTCCGC | -0.0761
17 | ATAGACAG | 0.0916
18 | GATAGACC | 0.00551
19 | CACCAGGC | -0.103
20 | ATAAAAAC | 0.305
21 | TATAAGGA | 0.218
22 | TAAGTAGA | 0.0987
23 | CACCTAAG | -0.037
24 | ATTGAGCC | 0.081
25 | CAGTTTGC | -0.0308

Some of the entries above in another layout.
Row	Sequence	PBM E-score
15	ACAGCTCA	-0.225
16	CATTCCGC	-0.0761
17	ATAGACAG	0.0916
18	GATAGACC	0.00551
19	CACCAGGC	-0.103
20	ATAAAAAC	0.305

Two entries picked at random from the list so far, as already listed:
Row | Sequence | PBM E-score
18 | GATAGACC | 0.00551
16 | CATTCCGC | -0.0761

Remaining list, next part

Row | Sequence | PBM E-score
26 | CATAAAGG | 0.102
27 | CCTCCTAA | -0.188
28 | CAGTCTCC | -0.114
29 | ATTCACGC | -0.0512
30 | ATGATGCC | 0.165
31 | GACTACGA | -0.105
32 | AACCGGGC | 0.187
33 | GAAGCCCA | -0.221
34 | GATGTACC | -0.0945
35 | CCGGTGCA | 0.227
36 | AGCTGTAA | -0.109
37 | CCGGCAGG | 0.181
38 | CTCATATC | -0.147
39 | CCTTTGAG | -0.211
40 | TATGGTCA | -0.0463
41 | CCCTTCAG | -0.193
42 | CACCGATA | 0.142
43 | ATCTCAGA | -0.00425
44 | AGTTATGG | -0.0312
45 | CCGATTAG | 0.0544
46 | AACATAAC | 0.0818
47 | ATCCTGGG | -0.0354
48 | CCATTTAG | -0.135
49 | CACCTGGA | -0.205
50 | TCTTGTAA | 0.152

Row | Sequence | PBM E-score
51 | CTCGGTTA | 0.173
52 | ACGGAAGG | 0.0281
53 | GGTCTGAC | -0.0468
54 | CTGTCCAA | 0.00934
55 | CGAAAGTA | -0.0329
56 | CTTACTTC | 0.0836
57 | CCACCCTA | -0.0654
58 | GGGCGCCA | 0.00505
59 | CCATTTCG | -0.171
60 | GACTCGGA | 0.194
61 | CCTAGAGA | -0.104
62 | CCTACGAG | -0.154
63 | TCGGCGCA | 0.133
64 | GCAGCTGC | 0.19
65 | CTAGTGTA | -0.0198
66 | AAAAACCC | -0.0236
67 | GATGCTCC | -0.0063
68 | CTATCAAA | 0.0491
69 | CTCCGGGC | 0.0789
70 | CCCCGAGC | -0.0347
71 | TCAAGCCA | -0.0394
72 | AGATGCTG | -0.219
73 | GCGTGCCC | -0.282
74 | GAAAGGTA | 0.0692
75 | CTCAAAAA | 0.0114

Row | Sequence | PBM E-score
76 | AAACTAGG | -0.105
77 | TAAGAAAA | 0.148
78 | CGTTCCAA | 0.0754
79 | GTTGAACA | -0.0214
80 | GGTCCCCA | -0.226
81 | AGCCCTCA | -0.107
82 | CCACAAAC | 0.148
83 | GCCCGTAC | -0.16
84 | GTTTCATA | -0.0671
85 | CGCAACGA | 0.0385
86 | ATTTCAGA | 0.0275
87 | AACTTCGG | 0.287
88 | CAGATGCG | -0.0328
89 | TTCGGCAA | 0.336
90 | ACTCGACA | 0.153
91 | CTTTATAA | 0.0517
92 | ACTGGTAT | 0.0101
93 | ACCGGGTC | 0.0636
94 | CTACGATC | -0.126
95 | ACAATTGC | -0.0498
96 | ACATTTAC | -0.0135
97 | CGGCGTAG | 0.021
98 | CCTAGTGA | -0.0968
99 | ATTCAGAC | 0.0247
100 | CTAAAGGC | -0.0965

Row | Sequence | PBM E-score
101 | GGGCATAC | -0.129
102 | CGTTTTTA | 0.2
103 | CTCTGTCA | -0.0765
104 | GGTCTGCA | -0.0184
105 | ACGCTCAT | -0.196
106 | CGCTACGC | -0.18
107 | AAAGGGAC | -0.119
108 | ATTTCGGG | 0.157
109 | AATTCGTG | 0.0586
110 | ATGCACAC | -0.0001
111 | CATGATAG | -0.00316
112 | CAAAGCGA | 0.0362
113 | CCTTGCTC | -0.141
114 | CGAACTTC | 0.13
115 | AATACGGA | 0.22
116 | GGCGCCTA | -0.0826
117 | CTTTGTTC | 0.247
118 | TAGAGCTA | -0.112
119 | AACGAGAG | -0.0137
120 | CCCACGGA | 0.157
121 | AGATTAAT | 0.111
122 | AAGGGTGT | -0.0275
123 | ATGGTACG | 0.0122
124 | GGTCTCAC | -0.117
125 | AGCTGCCG | 0.21

Row | Sequence | PBM E-score
126 | ACCCCAGA | -0.295
127 | GTCTACAA | -0.0519
128 | AGACCCAG | -0.185
129 | ACCCGCCA | -0.0982
130 | CTCGGACC | 0.228
131 | GAATAATC | 0.0439
132 | CAGATTAA | 0.125
133 | GTCTGAAA | 0.0228
134 | AACCGTAA | -0.004
135 | CTAAGCGC | -0.0432
136 | CAGCCTGC | -0.145
137 | ACAAGCAA | 0.111
138 | AAGGACGG | -0.173
139 | CGATGTAC | -0.0547
140 | CCGTTCCG | 0.304
141 | TCCCCCAA | -0.231
142 | TGGCGGAA | -0.151
143 | ACCGGAAA | 0.376
144 | GGATTTAA | 0.0782
145 | CTGTGATC | -0.0104
146 | AAATCTAT | 0.206
147 | GCCCATAC | -0.231
148 | GATTATAC | 0.162
149 | ATCCCCGC | -0.0515
150 | AAGCCAGG | -0.251

Row | Sequence | PBM E-score
151 | CTACTCGC | -0.0504
152 | TGCTGCAA | 0.0622
153 | CCGACCAG | -0.0354
154 | ATAGGTGA | -0.208
155 | CAGAGCAA | 0.108
156 | CCGGAACC | 0.363
157 | CATGACTC | -0.19
158 | CTGGTGCA | -0.177
159 | GGCGTCCC | -0.199
160 | ATAATCTA | 0.0368
161 | CGCCCTAA | -0.19
162 | CAGCCAGC | -0.265
163 | ATAAGACC | -0.119
164 | CGCCGGAA | 0.368
165 | AACCTTGA | 0.0783
166 | ACCGGCCT | 0.0901
167 | CTGTCCCC | -0.285
168 | GACACCAA | 0.0918
169 | CAAGGGAA | -0.0516
170 | GACTGTCA | -0.00134
171 | CTTTAATC | 0.141
172 | CAGAAGTC | -0.209

Not a retest: entries from further up.
Row | Sequence | PBM E-score
60 | GACTCGGA | 0.194
61 | CCTAGAGA | -0.104
62 | CCTACGAG | -0.154
63 | TCGGCGCA | 0.133

From the supplement of paper PMC3334620
